The chains behind the UniProt entries cited, without tags or fusion partners.
UniProt Q14191, whole entry, looked up: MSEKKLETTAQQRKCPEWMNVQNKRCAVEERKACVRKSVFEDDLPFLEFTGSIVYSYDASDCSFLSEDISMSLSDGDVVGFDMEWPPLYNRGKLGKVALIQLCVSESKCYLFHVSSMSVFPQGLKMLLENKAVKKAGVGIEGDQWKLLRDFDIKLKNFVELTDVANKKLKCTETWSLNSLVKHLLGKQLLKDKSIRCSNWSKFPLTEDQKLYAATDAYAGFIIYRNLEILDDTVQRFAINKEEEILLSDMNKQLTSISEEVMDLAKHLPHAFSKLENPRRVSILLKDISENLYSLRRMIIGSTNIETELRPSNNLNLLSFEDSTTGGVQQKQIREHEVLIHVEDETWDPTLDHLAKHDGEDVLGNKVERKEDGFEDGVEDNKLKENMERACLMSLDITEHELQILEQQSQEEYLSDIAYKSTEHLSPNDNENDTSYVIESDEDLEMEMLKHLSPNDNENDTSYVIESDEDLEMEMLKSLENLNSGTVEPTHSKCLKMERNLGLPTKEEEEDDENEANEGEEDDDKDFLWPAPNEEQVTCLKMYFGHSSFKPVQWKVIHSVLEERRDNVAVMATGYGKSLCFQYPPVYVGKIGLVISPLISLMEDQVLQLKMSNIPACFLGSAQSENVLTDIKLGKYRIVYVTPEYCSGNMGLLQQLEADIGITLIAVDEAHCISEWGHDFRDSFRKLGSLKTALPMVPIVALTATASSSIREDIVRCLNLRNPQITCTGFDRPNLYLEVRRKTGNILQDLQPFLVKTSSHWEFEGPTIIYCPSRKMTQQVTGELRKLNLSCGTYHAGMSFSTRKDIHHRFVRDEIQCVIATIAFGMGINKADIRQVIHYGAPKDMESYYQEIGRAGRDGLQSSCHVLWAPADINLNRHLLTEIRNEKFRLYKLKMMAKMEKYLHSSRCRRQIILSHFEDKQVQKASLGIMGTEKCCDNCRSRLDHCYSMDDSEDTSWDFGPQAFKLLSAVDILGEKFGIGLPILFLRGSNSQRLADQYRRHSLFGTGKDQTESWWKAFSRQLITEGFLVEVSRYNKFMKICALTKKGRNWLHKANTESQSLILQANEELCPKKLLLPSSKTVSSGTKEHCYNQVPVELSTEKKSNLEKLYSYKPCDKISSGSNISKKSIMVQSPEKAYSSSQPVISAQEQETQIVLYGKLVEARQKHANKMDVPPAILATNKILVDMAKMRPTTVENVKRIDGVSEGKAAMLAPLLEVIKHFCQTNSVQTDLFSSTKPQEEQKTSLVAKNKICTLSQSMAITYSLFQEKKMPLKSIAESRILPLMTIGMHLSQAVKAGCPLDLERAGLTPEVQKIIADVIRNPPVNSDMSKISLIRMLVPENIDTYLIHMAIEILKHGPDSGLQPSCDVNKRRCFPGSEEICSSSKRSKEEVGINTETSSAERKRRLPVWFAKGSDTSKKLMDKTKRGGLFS

In all, about 360,000 compounds went through this assay and about 1,700 (0.47%) were called active. Inconclusive means that the source gave no clear call. Such entries were picked first, then a sample of the others. Calls follow the shape of the dose curve; as a rule, active = well fitted inhibition curve with a large enough effect; inconclusive = small, poorly fitted or top-dose-only effect; inactive = no such curve, though single readings can be large or run the other way. Potencies of inconclusive entries are doubtful fits and often do not repeat.
What follows are molecules tested against Bifunctional 3'-5' exonuclease/ATP-dependent helicase WRN (Homo sapiens) (UniProt Q14191) (assay: qHTS for Inhibitors of WRN Helicase). Conditions: WRN helicase unwinding, fluorescent forked duplex, kinetic; series mostly up to 114 µM.
Method in brief: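 Kinetic fluorescence helicase assay: unwinding of a quenched forked DNA duplex (100 nM final) with 2 mM ATP final raises red fluorescence (525/598 nm). Compounds sat 15 min at room temperature with 20 nM WRN beforehand.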
With `COc1ccc(C2CC(=O)c3cnn(-c4nc(C)cc(C)n4)c3C2)cc1OC` (centres undefined) the Potency was inconclusive: 10 µM [inhibitor, full curve]. In the case of `CS(=O)(=O)Nc1ccc(C(=O)Nc2ccc(S(=O)(=O)N3CCCC3)cc2)cc1`, the Potency is reported as “inactive”. With `CN(C)c1ccc(C=C2C(=O)OC3(CCCC3)OC2=O)cc1` the Potency was inconclusive: 56.2 µM [inhibitor, partial curve]. With `O=C(NCc1ccco1)C1Cc2c(-c3cccc(F)c3)ccnc2O1` (centres undefined) the Potency was “inactive”. For `CCCN1C2=C(C(=O)CC(C)(C)C2)C(c2ccc(F)cc2)C2=C1c1ccccc1C2=O` (centres undefined), the Potency was inconclusive: 89.1 µM [inhibitor, single point]. With `Cc1ccc(S(=O)(=O)c2c(N)n(-c3ccccc3)c3nc4ccccc4nc23)cc1` the Potency was inconclusive: 39.8 µM [inhibitor, single point]. In the case of `S=C(NCCN1CCOCC1)N1CCN(c2cccc(Cl)c2)CC1`, the Potency is reported as inconclusive: 14.1 µM [inhibitor, single point]. In the case of `O=[N+]([O-])c1ccc2c(c1)nc1n2CCSC1`, the Potency is reported as inconclusive: 3.55 µM [inhibitor, full curve]. For `CCOC(=O)c1ccccc1N1C(=O)C2Sc3[nH]c(=O)sc3C(/C=C/c3ccccc3)C2C1=O` (centres undefined), the Potency was inconclusive: 50.1 µM [inhibitor, partial curve]. With `CC(/C=N/NC(=O)c1ccc(Br)cc1)=C\c1ccccc1` the Potency was “inactive”. In the case of `Cc1cc(C(=O)C(C)OC(=O)c2ccc(NC(=O)CC#N)cc2)c(C)n1-c1ccc(OC(F)F)cc1` (centres undefined), the Potency is reported as inconclusive: 14.1 µM [inhibitor, single point]. For `CSc1ccccc1C(=O)OCC(=O)NCCN1C(=O)CSC1=O`, the Potency was inconclusive: 22.4 µM [inhibitor, single point]. For `Cc1cc(C(=O)COC(=O)c2cc(Cl)c(O)c(Cl)c2)c(C)n1C`, the Potency was active: 50.1 µM. `COc1cc(C(=O)N2C(=O)CCC2=O)cc(OC)c1OC` was tested, and the Potency was inconclusive: 11.2 µM [inhibitor, full curve, poor fit]. `CC1(C)Cc2c(sc3c2c(=O)n(-c2cccc(Cl)c2)c(=O)n3CC(N)=O)CO1` was tested, and the Potency was “inactive”. For `COc1cc(-c2cccs2)cc(=O)c2c(C)oc(C)c12`, the Potency was “inactive”. For `O=C(CCS(=O)(=O)c1ccc(Br)cc1)NCc1cccs1`, the Potency was inconclusive: 100 µM [inhibitor, partial curve, poor fit]. For `O=C(Nc1ccccc1C(F)(F)F)NC1(C(=O)N2CCOCC2)CCCCC1`, the Potency was inconclusive: 56.2 µM [inhibitor, partial curve]. In the case of `O=[N+]([O-])c1ccc(C=NNC(=S)NN=Cc2ccc([N+](=O)[O-])cc2)cc1`, the Potency is reported as active: 56.2 µM.

Reference: PubChem BioAssay AID651768 (National Center for Advancing Translational Sciences (NCATS), 2012)
Also: nearly all actives have a fitted effect of over 55% in size.
Potency is read from the fitted curve at half-maximal effect.
